{"source": "PubChem BioAssay AID743454 | Peter MacCallum Cancer Centre, 2014", "screen": "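Knock-downs lowering viability or raising caspase 3/7 activity in vorinostat-treated resistant cells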 (primary screen)", "system": "human HCT116-VR colon cancer cells, selected for vorinostat resistance", "knock-down reagent": "siRNA pool against human genes, 40 nM siRNA pool", "timing": "vorinostat for 24 h, read-out about 72 h after transfection", "conditions": "vorinostat at 2.5 µM final", "detection": "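Two measures, CellTiter-Fluor viability and luminescent caspase 3/7 activity, each as fold change against same-plate mock wells, mean of duplicates, then screen-wide robust z-score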", "reading the numbers": "viability robust z-score: higher = more viable cells than screen typical; caspase robust z-score: higher = more caspase 3/7 activity than screen typical", "rule for the call": "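a knock-down is a hit when classed RV1 or RV2 for lowered viability, or CA1 or CA2 for caspase activation; those lethal without drug were dropped; hits were retested singly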", "note": "Here is an unselected part of about 18,000 deposited reagents. Of all reagents, 450 (2.5%) were called active. 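Single biological run; no consistent viability z cut-off exists, so the class columns, not z-scores, define the calls.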"}
{"gene knocked down": "TIGD7", "viability hit class": "no change", "caspase hit class": "no change", "viability robust z-score": 0.41, "caspase robust z-score": -0.08, "Call": "inactive"}
{"gene knocked down": "RPP25L", "viability hit class": "no change", "caspase hit class": "no change", "viability robust z-score": 0.04, "caspase robust z-score": 3.82, "Call": "inactive"}
{"gene knocked down": "SFTPA2B (retired record)", "viability hit class": "no change", "caspase hit class": "no change", "viability robust z-score": 0.22, "caspase robust z-score": 0.48, "Call": "inactive"}
{"gene knocked down": "ATAD3A", "viability hit class": "no change", "caspase hit class": "no change", "viability robust z-score": -0.92, "caspase robust z-score": -0.36, "Call": "inactive"}
{"gene knocked down": "TMEM14C", "viability hit class": "no change", "caspase hit class": "no change", "viability robust z-score": -1.55, "caspase robust z-score": -1.38, "Call": "inactive"}
{"gene knocked down": "TMED6", "viability hit class": "no change", "caspase hit class": "no change", "viability robust z-score": -1.34, "caspase robust z-score": -0.3, "Call": "inactive"}

Copied from above for reference:
{"gene knocked down": "SFTPA2B (retired record)", "viability hit class": "no change", "caspase hit class": "no change", "viability robust z-score": 0.22, "caspase robust z-score": 0.48, "Call": "inactive"}
{"gene knocked down": "ATAD3A", "viability hit class": "no change", "caspase hit class": "no change", "viability robust z-score": -0.92, "caspase robust z-score": -0.36, "Call": "inactive"}

The results go on:
{"gene knocked down": "GNG7", "viability hit class": "no change", "caspase hit class": "no change", "viability robust z-score": -0.85, "caspase robust z-score": -0.61, "Call": "inactive"}
{"gene knocked down": "TNFSF9", "viability hit class": "no change", "caspase hit class": "no change", "viability robust z-score": 1.31, "caspase robust z-score": 0.56, "Call": "inactive"}
{"gene knocked down": "FKBP1B", "viability hit class": "no change", "caspase hit class": "no change", "viability robust z-score": 1.66, "caspase robust z-score": 0.54, "Call": "inactive"}
{"gene knocked down": "ZWINT", "viability hit class": "no change", "caspase hit class": "no change", "viability robust z-score": -0.09, "caspase robust z-score": 0.4, "Call": "inactive"}
{"gene knocked down": "TDRD9", "viability hit class": "no change", "caspase hit class": "no change", "viability robust z-score": 0.59, "caspase robust z-score": -0.26, "Call": "inactive"}
{"gene knocked down": "CACYBP", "viability hit class": "no change", "caspase hit class": "no change", "viability robust z-score": 1.03, "caspase robust z-score": -0.94, "Call": "inactive"}
